According to article PMC7862700:
This is one part of the list. The exact form of the protein is not confirmed.

molecular target: T1, ELF2 (UniProt Q15723); test: DAPPL (digital affinity profiling via proximity ligation, sequencing); conditions: 10 mM Tris-HCl pH 7.5, 50 mM NaCl, 1 mM DTT, 4% glycerol, room temperature, 30 min; GST-TFs on glutathione beads, 16-mer random dsDNA library, 0.1% …; high values mean tight binding; double strand, one strand shown; scale: fold enrichment (6-mer frequency, TF over GST control)
T1 sequence: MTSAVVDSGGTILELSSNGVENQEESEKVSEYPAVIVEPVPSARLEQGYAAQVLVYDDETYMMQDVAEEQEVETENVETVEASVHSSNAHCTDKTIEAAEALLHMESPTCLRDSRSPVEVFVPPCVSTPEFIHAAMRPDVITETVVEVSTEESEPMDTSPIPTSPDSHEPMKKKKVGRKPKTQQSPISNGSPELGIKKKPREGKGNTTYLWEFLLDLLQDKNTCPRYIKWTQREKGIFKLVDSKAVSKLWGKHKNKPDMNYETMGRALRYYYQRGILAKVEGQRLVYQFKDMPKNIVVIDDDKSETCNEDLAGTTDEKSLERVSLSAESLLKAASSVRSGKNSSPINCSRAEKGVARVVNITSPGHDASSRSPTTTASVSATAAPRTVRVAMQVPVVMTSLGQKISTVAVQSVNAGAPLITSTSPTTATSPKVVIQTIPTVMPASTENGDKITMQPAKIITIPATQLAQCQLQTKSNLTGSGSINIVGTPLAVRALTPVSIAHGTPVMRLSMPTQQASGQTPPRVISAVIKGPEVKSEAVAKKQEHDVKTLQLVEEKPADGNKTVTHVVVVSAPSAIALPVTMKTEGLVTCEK

Sequence	binding signal
GGCTCA	1.23
CATCTT	1.14
AGCCCT	1.1
GATGGT	1.13
GTATAT	1.18
AATAAT	1.33
ACTTCC	13.3
TCTTAC	1.24
CCAAAA	1.13
ATCTCG	1.27
TTTCGA	1.36
ACTAGC	1.17
ATCTAC	1.28
TTGCCT	1.22
TCCCTT	1.58
CCTGAT	1.48
AACATG	1.13
ATACCC	1.19
AATGTC	1.28
TGTTTG	1.3

An excerpt of these results, as comma-separated lines:
Sequence,binding signal
GATGGT,1.13
GTATAT,1.18

More results

Sequence	binding signal
AATCAA	1.14
AATCGC	1.05
ATGTAT	1.3
GTCTTA	1.06
ATTCAG	1.12
AACCCA	1.02
TGATGG	1.2
CCGATT	1.38
CTAAGT	1.17
CATGCT	1.17
ACTCGC	1.09
TTCCTC	2.45
ACATTA	1.13
CCGATA	1.16
CATTTC	2.19
ACCGAC	1.31
GATTCC	1.29
TTTGCG	1.22
TAACAC	1.23
